Source: patent US20120034231A1
No constants are given. Whether binding was seen depends on the method and setting. Some results given as binding are weak or reduced against the parent protein; the word gives no strength.

Biological target: cynomolgus IL12Rβ1 (cynomolgus)
Assay: FACS on HEK293 and Jurkat cells expressing cyno IL12Rβ1

binding: binds
B1: MOR05286 Fab (Fab, V domains shown)
VH: QVQLKESGPALVKPTQTLTLTCTFSGFSLSTSGMGVSWIRQPPGKALEWLALIDWTDDKYYSTSLKTRLTISKDTSKNQVVLTMTNMDPVDTATYYCARTVGKGLYRVDNWGQGTLVTVSS
VL: DIELTQPPSVSVAPGQTARISCSGDNLGSKFAYWYQQKPGQAPVLVIYDDSKRPSGIPERFSGSNSGNTATLTISGTQAEDEADYYCQSWDSSSGNDVFGGGTKLTVLG
